This is an account of results in PubChem BioAssay AID330 (DTP/NCI, 2004).

The test deals with P388 leukemia ip, CD2F1 mice, survival T/C. The test is described as follows: NCI In Vivo Anticancer Drug Screen. Data for tumor model P388 Leukemia (intraperitoneal) in CD2F1 (CDF1) mice. The conditions noted are these: T/C endpoint: median survival time, higher T/C = longer survival.
[1] abbreviates: dose: 50.0 mg/kg/injection, schedule: Q01DX005 (ip), vehicle: saline with Tween-80.
The mark [2] stands for this setting: dose: 100.0 mg/kg/injection, schedule: Q01DX005 (ip), vehicle: saline with Tween-80.
[3] abbreviates: dose: 200.0 mg/kg/injection, schedule: Q01DX005 (ip), vehicle: saline with Tween-80.
Where [4] appears, read: dose: 100.0 mg/kg/injection, schedule: Q01DX009 (ip), vehicle: saline.
The mark [5] stands for this setting: dose: 200.0 mg/kg/injection, schedule: Q01DX009 (ip), vehicle: saline with Tween-80.
Where [6] appears, read: dose: 200.0 mg/kg/injection, schedule: Q01DX001 (ip), vehicle: Klucel (hydroxypropylcellulose) (HPC).
Setting [7] is: dose: 400.0 mg/kg/injection, schedule: Q01DX001 (ip), vehicle: Klucel (hydroxypropylcellulose) (HPC).
The mark [8] stands for this setting: dose: 25.0 mg/kg/injection, schedule: Q01DX009 (ip), vehicle: saline.
Where [9] appears, read: dose: 200.0 mg/kg/injection, schedule: Q01DX009 (ip), vehicle: Klucel (hydroxypropylcellulose) (HPC).
Where [10] appears, read: dose: 120.0 mg/kg/injection, schedule: Q01DX005 (ip), vehicle: saline with Tween-80.

The list is a part of this screen's results and no random one: it is rich in T/C values a quarter to a half above the control, in often repeated tests (any T/C) and in doses without a T/C. Other doses and runs of a compound stand elsewhere. T/C is the treated group as % of the vehicle group. Some entries give survivors of the animals treated and no T/C: the source files T/C as zero there, which appears to mark a toxic dose or a test without result, not a measured value. Some survivor counts are full or nearly so, which does not show that the dose was tolerated: the source hardly ever lists a survival T/C far under the control, and the zero likely stands for such cases as well. Survivors were counted at the toxicity check, usually on the fifth day, unless a day is given; later deaths do not show. Schedule codes are those of the source, read here as Q, the interval in days (D) or hours (H), X, the number of doses. Some doses were run more than once; the values are given in rising order. Some structures stand for samples that the source files as different forms (salt, stereo form or complex); doses refer to the form tested. Counts like (3×) stand for listed records that agree. For survival time, the PubChem record calls one and a half times the control and up active, and a quarter to a half above the control has no call in these data; cut-offs in other NCI protocols can differ. Some T/C values are followed by the survivors on the day toxicity was checked, most often the fifth; where none is given, no animal had died by that day.

For `C=C1C(=O)OC2C1C(OC(=O)/C(=C/CO)CO)CC1(CO1)C1CC=C(C)C21` (centres undefined), the T/C (dose: 7.5 mg/kg/injection, schedule: Q01DX005 (ip), vehicle: Klucel (hydroxypropylcellulose) (HPC)) is 126 % of control [5 of 6 alive]. The survivor count runs as follows: (dose: 15.0 mg/kg/injection, schedule: Q01DX005 (ip), vehicle: Klucel (hydroxypropylcellulose) (HPC)) 5 of 6; (dose: 30.0 mg/kg/injection, schedule: Q01DX005 (ip), vehicle: Klucel (hydroxypropylcellulose) (HPC)) 0 of 6; (dose: 60.0 mg/kg/injection, schedule: Q01DX005 (ip), vehicle: Klucel (hydroxypropylcellulose) (HPC)) 0 of 6; (dose: 120.0 mg/kg/injection, schedule: Q01DX005 (ip), vehicle: Klucel (hydroxypropylcellulose) (HPC)) 0 of 6; (dose: 240.0 mg/kg/injection, schedule: Q01DX005 (ip), vehicle: Klucel (hydroxypropylcellulose) (HPC)) 0 of 6.
Turning to `C=C1C(=O)CCC1C#N` (centres undefined), for the setting “dose: 400.0 mg/kg/injection, schedule: Q04DX002 (ip), vehicle: suspension in saline”, the survivor count is reported as 1 of 6.
As to `COc1ccc(C(C)c2cc3c(cc2OC)OCO3)cc1` (centres undefined), the T/C reads like this: (dose: 25.0 mg/kg/injection, schedule: Q01DX005 (ip), vehicle: saline with Tween-80) 98, 102, 108, 117 % of control; under setting [1], 112, 114, 116, 120, 132 % of control; under setting [2], 108, 126 [5 of 6 alive], 154, 176, 178 % of control; under setting [3], 97 [4 of 6 alive] and 174 % of control [5 of 6 alive]. For the same compound, under setting [3], the survivor count is given as 2 of 6, 3 of 6, 4 of 6.
As for `CN(C)c1ccc2nc3ccc(N)cc3[n+](-c3ccccc3)c2c1`, the survivor count under setting [1] is recorded as 0 of 5, the survivor count under setting [2] was 0 of 5 and the survivor count under setting [3] is recorded as 0 of 5.
Regarding `Cc1ncc([N+](=O)[O-])n1CCSC#N`, the survivor count (dose: 25.0 mg/kg/injection, schedule: Q04DX003 (ip), vehicle: saline with Tween-80) is listed as 1 of 6.
Turning to `C/C(=N\NC(=S)Nc1ccc(C(=O)O)cc1)c1ccc2ccccc2n1`, the survivor count under setting [3] is reported as 3 of 6.
As to `COc1ccc2c(c1)CCC1C2=CCC2C(=O)OC(=O)C21C` (centres undefined), the survivor count under setting [3] was 4 of 6.
With `NC=NC(CCC(=O)O)C(=O)O` (centres undefined), the survivor count was 0 of 6 (dose: 100.0 mg/kg/injection, schedule: Q01DX005 (ip), vehicle: saline) and 0 of 6 (2×) (dose: 200.0 mg/kg/injection, schedule: Q01DX005 (ip), vehicle: saline).
For the compound `C=C(CC(=O)Nc1nc(C)c(C(=O)OC)s1)C(=O)O`, under setting [4], the survivor count is 6 of 6.
For the compound `CCCCCN(CCCCC)c1nsc(Cl)n1`, the survivor count under setting [5] is given as 6 of 6.
`CCCCCCC(=O)/C=C/c1cccc(OCOCC)c1`: the T/C was 138 % of control (dose: 100.0 mg/kg/injection, schedule: Q01DX009 (ip), vehicle: saline with Tween-80) and 126 % of control under setting [5].
`CCc1nnc2c(c(=O)n(C)c(=O)n2C)[n+]1[O-]`: the survivor count runs as follows: under setting [6], 0 of 6; under setting [7], 1 of 6.
Regarding `CCOC(=O)CCc1nc(C)ncc1C(=O)OCC`, the survivor count under setting [4] is given as 6 of 6.
Take `CNc1c2ccccc2nc2ccccc12`: the survivor count is recorded as 5 of 6 (dose: 50.0 mg/kg/injection, schedule: Q04DX002 (ip), vehicle: distilled water + Tween-80); 0 of 6 (dose: 100.0 mg/kg/injection, schedule: Q04DX002 (ip), vehicle: distilled water + Tween-80); 0 of 6 (dose: 200.0 mg/kg/injection, schedule: Q04DX002 (ip), vehicle: distilled water + Tween-80); 0 of 6 (dose: 400.0 mg/kg/injection, schedule: Q04DX002 (ip), vehicle: distilled water + Tween-80).
For the compound `CC[CH2][Pb]([CH2]CC)([CH2]CC)[O]C(=O)C(F)(F)F`, the T/C was 130 % of control (dose: 4.0 mg/kg/injection, schedule: Q01DX009 (ip), vehicle: saline with Tween-80); 139 % of control (dose: 6.0 mg/kg/injection, schedule: Q01DX009 (ip), vehicle: saline with Tween-80); 125 % of control (dose: 6.25 mg/kg/injection, schedule: Q01DX009 (ip), vehicle: saline); 143 % of control (dose: 9.0 mg/kg/injection, schedule: Q01DX009 (ip), vehicle: saline with Tween-80). The survivor count was 5 of 6 (dose: 12.5 mg/kg/injection, schedule: Q01DX009 (ip), vehicle: saline) and 0 of 6 under setting [8].
Take `Nc1cccc(S(=O)(=O)N/N=C/C(=O)O)c1`: the survivor count was 5 of 6 (dose: 200.0 mg/kg/injection, schedule: Q01DX009 (ip), vehicle: water) and 1 of 6 (dose: 400.0 mg/kg/injection, schedule: Q01DX009 (ip), vehicle: water).
Regarding `CC(C)N1C(C)c2ccccc2OS1=O` (centres undefined), the survivor count under setting [9] was 0 of 6.
For `O=C(O)CSc1ccc2c3c(cccc13)C(=O)c1ccccc1-2`, the survivor count under setting [8] is 3 of 6.
With `CC(=O)n1c(Cl)c(/C=N/Nc2ccccc2[N+](=O)[O-])c2ccccc21`, the survivor count by setting is: under setting [6], 5 of 6; under setting [7], 6 of 6.
On to `CN1c2ccccc2SC2C(c3ccccc3)=NOC21` (centres undefined), for which the survivor count runs as follows: (dose: 15.0 mg/kg/injection, schedule: Q01DX005 (ip), vehicle: saline with Tween-80) 6 of 6; (dose: 60.0 mg/kg/injection, schedule: Q01DX005 (ip), vehicle: saline with Tween-80) 6 of 6; under setting [10], 6 of 6.
With `CCC(CC)N(C)C(C)(C)CO`, for the setting “dose: 200.0 mg/kg/injection, schedule: Q04DX003 (ip), vehicle: saline sonified”, the survivor count was 1 of 6.
For the compound `Cc1ncc(CO)c(CO)c1OCC(O)CN1CCN(C(=O)c2ccccc2)CC1` (centres undefined), the survivor count (dose: 240.0 mg/kg/injection, schedule: Q01DX005 (ip), vehicle: saline) was 1 of 6.
Take `O=C(O)CCNCCC(=O)O`: the T/C (dose: 200.0 mg/kg/injection, schedule: Q04DX003 (ip), vehicle: saline) is 129 % of control and the T/C (dose: 400.0 mg/kg/injection, schedule: Q04DX003 (ip), vehicle: saline) is 125 % of control.
Take `CC1=Nc2ccccc2[S+](C)/C1=C(\[O-])c1ccccc1` (centres undefined): the survivor count under setting [1] was 0 of 6, the survivor count under setting [2] was 0 of 6 and the survivor count under setting [3] is on record as 0 of 6.
Regarding `S=C(Nc1ccc(Br)c(Cl)c1)SCc1ccc2c(c1)OCO2`, the T/C runs as follows: (dose: 50.0 mg/kg/injection, schedule: Q01DX009 (ip), vehicle: Klucel (hydroxypropylcellulose) (HPC)) 132 % of control; (dose: 100.0 mg/kg/injection, schedule: Q01DX009 (ip), vehicle: Klucel (hydroxypropylcellulose) (HPC)) 132 % of control [4 of 6 alive]. Besides, under setting [9], the survivor count was 0 of 6 and 2 of 6.
As to `COCc1cccnc1`, under “dose: 200.0 mg/kg/injection, schedule: Q01DX005 (ip), vehicle: Klucel (hydroxypropylcellulose) (HPC)”, the survivor count was 4 of 6.
Regarding `O=c1[nH]c(=O)c2nc3c([N+](=O)[O-])ccc(-c4cccc5ccccc45)c3nc2[nH]1`, the survivor count (dose: 200.0 mg/kg/injection, schedule: Q01DX009 (ip), vehicle: saline) is 1 of 6.
Consider `CNC1Cc2c[nH]c3cccc(c23)C12C=C(C)C(=O)O2` (centres undefined), for which, for the setting “dose: 300.0 mg/kg/injection, schedule: Q01DX009 (ip), vehicle: saline with Tween-80”, the survivor count was 0 of 3.
For `COc1cc([C@@H]2c3cc4c(cc3C[C@@H]3COC(=O)C32)OCO4)cc(OC)c1O` (some centres undefined), the T/C runs as follows: (dose: 30.0 mg/kg/injection, schedule: Q01DX005 (ip), vehicle: saline with Tween-80) 136 % of control; under setting [10], 130 % of control. The survivor count is listed as 6 of 6 under setting [10] and 6 of 6 (dose: 180.0 mg/kg/injection, schedule: Q01DX005 (ip), vehicle: saline with Tween-80).
Take `C[C@]12CCCC[C@@H]1CC[C@@H]1[C@@H]2[C@@H](O)C[C@@]2(C)[C@H]1CC[C@]2(C)O`: the survivor count (dose: 400.0 mg/kg/injection, schedule: Q04DX003 (ip), vehicle: saline with Tween-80) is reported as 1 of 6.
